Among the data in publication PMC9122951 are binding values, retold here.

Protein sequences, listed by entry. Tags and fused reporters are not part of them. Lines headed by an entry give the natural chain unless they say otherwise; changes in a name come on top.
UniProt Q96AC1: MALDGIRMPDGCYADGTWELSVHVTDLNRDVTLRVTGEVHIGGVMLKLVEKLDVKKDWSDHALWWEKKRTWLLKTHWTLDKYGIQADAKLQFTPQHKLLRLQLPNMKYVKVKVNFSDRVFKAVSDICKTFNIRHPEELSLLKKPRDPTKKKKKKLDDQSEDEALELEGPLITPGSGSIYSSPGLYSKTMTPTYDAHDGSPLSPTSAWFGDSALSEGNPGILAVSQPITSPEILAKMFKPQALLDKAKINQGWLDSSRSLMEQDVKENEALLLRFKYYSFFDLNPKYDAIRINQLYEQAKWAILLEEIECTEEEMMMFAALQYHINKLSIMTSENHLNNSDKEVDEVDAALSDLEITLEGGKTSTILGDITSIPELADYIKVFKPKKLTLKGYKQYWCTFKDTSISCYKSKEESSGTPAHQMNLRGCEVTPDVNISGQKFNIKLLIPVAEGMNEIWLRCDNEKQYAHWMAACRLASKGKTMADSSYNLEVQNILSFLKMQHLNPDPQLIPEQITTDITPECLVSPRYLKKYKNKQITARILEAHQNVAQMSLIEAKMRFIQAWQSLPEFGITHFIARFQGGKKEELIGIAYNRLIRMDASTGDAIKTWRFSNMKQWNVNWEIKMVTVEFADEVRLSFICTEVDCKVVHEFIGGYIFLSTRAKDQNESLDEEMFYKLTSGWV
UniProt P10275: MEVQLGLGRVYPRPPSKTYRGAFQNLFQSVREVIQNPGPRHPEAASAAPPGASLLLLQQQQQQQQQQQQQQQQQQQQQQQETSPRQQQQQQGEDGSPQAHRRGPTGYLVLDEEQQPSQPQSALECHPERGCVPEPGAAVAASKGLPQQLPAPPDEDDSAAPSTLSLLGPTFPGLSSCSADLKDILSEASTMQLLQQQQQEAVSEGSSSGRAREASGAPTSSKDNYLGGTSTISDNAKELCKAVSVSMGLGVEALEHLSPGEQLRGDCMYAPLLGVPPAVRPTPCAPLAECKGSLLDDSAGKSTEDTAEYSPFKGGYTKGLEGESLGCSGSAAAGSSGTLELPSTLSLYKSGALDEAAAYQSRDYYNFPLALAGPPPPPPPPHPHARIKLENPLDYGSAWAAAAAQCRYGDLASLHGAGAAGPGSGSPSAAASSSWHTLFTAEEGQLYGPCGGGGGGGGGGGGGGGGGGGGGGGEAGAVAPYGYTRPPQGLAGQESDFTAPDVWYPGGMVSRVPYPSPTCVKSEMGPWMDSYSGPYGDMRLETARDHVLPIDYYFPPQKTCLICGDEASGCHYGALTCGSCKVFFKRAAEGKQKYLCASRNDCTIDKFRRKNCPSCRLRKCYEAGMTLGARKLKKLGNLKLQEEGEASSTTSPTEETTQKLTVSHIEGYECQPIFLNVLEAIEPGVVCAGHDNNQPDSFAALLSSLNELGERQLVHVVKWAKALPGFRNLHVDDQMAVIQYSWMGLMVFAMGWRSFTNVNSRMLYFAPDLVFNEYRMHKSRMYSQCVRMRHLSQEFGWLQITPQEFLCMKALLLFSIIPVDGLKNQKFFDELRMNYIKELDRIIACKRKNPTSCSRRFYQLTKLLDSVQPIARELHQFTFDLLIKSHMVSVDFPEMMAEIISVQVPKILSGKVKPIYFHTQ

The target in the experiment is Flag-tagged F1-domain-deleted mutant of Kindlin-2 (UniProt Q96AC1). Description: co-IP; lysates of Kindlin-2 knockdown BT549 cells infected with lentivirus encoding 3×Flag-tagged Kindlin-2 WT, ΔF1 or ΔF0; IP with anti-Flag antibody, immunoblot for endogenous AR and Src. Background: Immunoblotting shows a protein as a band on a membrane.

No constants are given. Whether binding was seen depends on the method and setting. Binding seen in cells or lysates may run through a third protein.

In the case of “Androgen receptor (from UniProt P10275 1-920)”, the binding result is reported as “no binding”.
